In patent publication US10758516B2, “Methods and compositions for the treatment of gliomas” (University of Cincinnati, priority 2017, dated 2020):
For at least one compound, name, drawing or mass did not settle the structure.

By UniProt entry, the sequences of proteins in these tests, tags left out. Where a name states a change or a piece, a line headed by the entry shows the natural chain unless it says otherwise.
UniProt P43116: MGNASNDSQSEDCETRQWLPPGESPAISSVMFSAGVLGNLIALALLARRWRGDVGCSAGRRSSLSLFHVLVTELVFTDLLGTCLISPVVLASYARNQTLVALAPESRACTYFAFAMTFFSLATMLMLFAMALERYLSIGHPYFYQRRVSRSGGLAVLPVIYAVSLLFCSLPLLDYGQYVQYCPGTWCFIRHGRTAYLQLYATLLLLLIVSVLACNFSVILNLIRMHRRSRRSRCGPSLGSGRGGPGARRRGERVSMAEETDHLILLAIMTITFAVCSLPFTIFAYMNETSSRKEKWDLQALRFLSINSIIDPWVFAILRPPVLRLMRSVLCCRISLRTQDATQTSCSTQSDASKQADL

Assays:
EP2 receptor [1] = target: T1, EP2 receptor (Homo sapiens, UniProt P43116); assay: PGE2-mediated cAMP signaling in LN229 glioma cells; type: cell-based; settings: concentration-dependent, forskolin 100 μM
T1 construct: endogenous in cells; host or cells: SF767 human glioblastoma cells
Excerpt: (§1) FIG. 1. Bar graph showing PGE2 mediated cAMP signaling via EP2 receptor in human malignant glioma cells LN229 (top) and SF767 (bottom).
(§2) (n=5, *P<0.05; ***P<0.001, one-way ANOVA and post-hoc Bonferroni test). Data are shown as mean+SEM.

EP2 receptor [2] = target: T1, EP2 receptor; assay: PGE2-mediated cAMP signaling in SF767 glioma cells; type: cell-based; settings: concentration-dependent, forskolin 100 μM
Excerpt: as §1, §2

SMILES: C=C[C@@]1(C)CC(=O)[C@]2(O)[C@@]3(C)[C@@H](O)CCC(C)(C)[C@@H]3[C@H](O)[C@H](OC(C)=O)[C@@]2(C)O1 [forskolin, reference compound]
- cAMP levels (EP2 receptor [1]): replicated
- cAMP levels (EP2 receptor [2]): replicated
